The target in this assay is HSP70 (human (endogenous in SH-SY5Y)). The assay can be described thus: co-IP.

The results in this text go back to article doi:10.1101/2024.10.27.620478.

Results are given in words; binding and its absence hold for the method and conditions named. Binding seen in cells or lysates may run through a third protein. Binding calls can cover weak binding; strength is not graded here.

B1: EVA1-C (protein, UniProt P58658 49-441)
chain: LTDFSGYLTKLLQNHTTYACDGDYLNLQCPRHSTISVQSAFYGQDYQMCSSQKPASQREDSLTCVAATTFQKVLDECQNQRACHLLVNSRVFGPDLCPGSSKYLLVSFKCQPNELKNKTVCEDQELKLHCHESKFLNIYSATYGRRTQERDICSSKAERLPPFDCLSYSALQVLSRRCYGKQRCKIIVNNHHFGSPCLPGVKKYLTVTYACVPKNILTAIDPAIANLKPSLKQKDGEYGINFDPSGSKVLRKDGILVSNSLAAFAYIRAHPERAALLFVSSVCIGLALTLCALVIRESCAKDFRDLQLGREQLVPGSDKVEEDSEDEEEEEDPSESDFPGELSGFCRTSYPIYSSIEAAELAERIERREQIIQEIWMNSGLDTSLPRNMGQFY
For the molecule B1, the binding entry is on record as “binds”.
